# Measurements: paper doi:10.1101/356592 (bioRxiv, 2018)
# Protein sequences, listed by entry. Tags and fused reporters are not part of them. Lines headed by an entry give the natural chain unless they say otherwise; changes in a name come on top.
# UniProt P25454: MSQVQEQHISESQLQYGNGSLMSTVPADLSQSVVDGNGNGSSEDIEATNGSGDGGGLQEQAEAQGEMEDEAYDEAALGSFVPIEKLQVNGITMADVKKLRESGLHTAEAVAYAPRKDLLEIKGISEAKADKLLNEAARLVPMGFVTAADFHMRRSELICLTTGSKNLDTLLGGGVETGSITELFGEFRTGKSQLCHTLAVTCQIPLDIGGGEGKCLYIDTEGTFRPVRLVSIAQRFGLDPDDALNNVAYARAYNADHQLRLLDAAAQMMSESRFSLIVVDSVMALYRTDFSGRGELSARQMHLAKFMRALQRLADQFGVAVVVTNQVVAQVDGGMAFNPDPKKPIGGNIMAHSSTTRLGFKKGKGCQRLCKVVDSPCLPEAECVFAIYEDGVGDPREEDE
# Results are given in words; binding and its absence hold for the method and conditions named. Binding seen in cells or lysates may run through a third protein. A result given as binding can be weak or reduced; the word gives no strength. Where a sequence is shown, tags or fusion partners need not be part of it.
# Target: T1, His6-tagged Dmc1 (Saccharomyces cerevisiae, UniProt P25453 1-334)
# T1 sequence (looked up): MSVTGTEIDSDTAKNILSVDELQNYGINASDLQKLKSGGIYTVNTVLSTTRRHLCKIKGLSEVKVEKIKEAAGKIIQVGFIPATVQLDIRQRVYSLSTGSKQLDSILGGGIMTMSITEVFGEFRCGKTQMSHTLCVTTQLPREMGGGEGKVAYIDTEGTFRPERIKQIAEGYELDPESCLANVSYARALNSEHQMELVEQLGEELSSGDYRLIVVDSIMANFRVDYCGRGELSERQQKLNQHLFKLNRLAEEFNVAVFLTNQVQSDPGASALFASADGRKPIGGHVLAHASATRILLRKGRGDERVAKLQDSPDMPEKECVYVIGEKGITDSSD
# Assay: co-IP
substance,measurement,value
His6-tagged Rad51-II3A (from UniProt P25454),binding,binds
